Test results reported in US20250057930A1, “ANAPLASTIC LYMPHOMA KINASE (ALK) CANCER VACCINES AND METHODS OF USE THEREOF” (The Children's Medical Center Corporation, priority 2022, published 2025).

Tested on: NCI-H2228 cells
Assay: LC-DIAMS of pan-HLA immunoprecipitations of NCI-H2228
Set-up: species or system human
Conditions: MHC-I eluates from NCI-H2228 cells

| Sequence | LC-DIAMS |
| --- | --- |
| VIINQVYRRK | not detected |
| IINQVYRRK | not detected |
| RPRPSQPSSL | identified |
| DVIINQVYRRK | not detected |
